From publication PMC4333415, “Structural insight into operator dre-sites recognition and effector binding in the GntR/HutC transcription regulator NagR” (Nucleic Acids Research, 2015)
For some assays here: No signal at the amounts used counts as a negative. At least one verdict was read from the data and is not stated in words by the source. Protein sequences can lack the tags named with them. For some assays here: For at least one entry, the source does not settle the construct or the ends of the probe.

What was measured:
[1] = target: T1, NagR-DBD (Bacillus subtilis) (UniProt O34817); test: EMSA; conditions: 2 uM DNA; recombinant protein; residues 1-75
T1 sequence (looked up): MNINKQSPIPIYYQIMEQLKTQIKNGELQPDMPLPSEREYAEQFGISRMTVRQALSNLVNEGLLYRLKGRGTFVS

[2] = target: T2, NagR (YvoA) (Bacillus subtilis) (UniProt O34817); test: EMSA; conditions: 2 uM DNA; recombinant protein
T2 sequence (looked up, limits assumed): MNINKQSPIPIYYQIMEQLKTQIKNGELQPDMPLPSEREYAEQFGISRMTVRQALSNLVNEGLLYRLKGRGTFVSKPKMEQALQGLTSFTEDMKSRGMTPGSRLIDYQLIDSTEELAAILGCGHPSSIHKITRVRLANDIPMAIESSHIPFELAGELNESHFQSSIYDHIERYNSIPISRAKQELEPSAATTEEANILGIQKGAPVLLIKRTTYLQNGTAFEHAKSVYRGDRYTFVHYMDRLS

[3] = target: T1, NagR-DBD (Bacillus subtilis); test: SEC; conditions: 3 uM DNA, non-equilibrium, no complex detected although SPR shows binding; recombinant protein; residues 1-75
[4] = target: T2, NagR (YvoA) (Bacillus subtilis); test: SEC; conditions: 3 uM DNA; recombinant protein

Sequence	binding result [1]	binding result [2]	binding result [3]	binding result [4]
CTGGTCTAGATCACT / GTGATCTAGACCAGT [15mer native nagAB dsDNA]	binds	binds	no binding	binds
GTGGTCTAGACCACT / GTGGTCTAGACCACT [15mer palindromic dsDNA]	binds	binds	–	–
TTGGTATAGATCACT / GTGATCTATACCAAT [15mer native nagP dsDNA]	binds	binds	–	–
